PubChem BioAssay AID1259308 | NCATS, 2017

Test: 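Genes whose loss raises luciferase production in HEK293 cells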 (primary screen)
Cell system: human HEK293 embryonic kidney cells stably expressing firefly luciferase (HEK-CMV-Luc2-Hygro)
Knock-down reagent: single siRNA against human genes, 0.8 pmol siRNA per well
Timing: 72 h
Detection: 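Reporter luminescence and viable-cell signal on separate replicate plates, given as percent of non-targeting control and median/MAD z-scores, plus per-cell luciferase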
Direction: total luciferase, z-score and total luciferase, % of control: higher = more reporter protein produced; luciferase per cell, z-score: higher = more reporter output per viable cell; viable cells, % of control: higher = more viable cells
Active means: 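An siRNA counts as active if its total luciferase robust z-score exceeds 3; genes with two or more such siRNAs out of three were retested with fresh siRNAs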
Calls: active = raised luciferase; inactive = no rise
In all, the deposit lists about 59,000 reagents; this is a part drawn at random. About 1,510 of all reagents (2.6%) were called active. 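Calls use total luciferase alone and ignore viability, so some active siRNAs may act by altering cell number.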

target gene,PubChem SID,"total luciferase, z-score","total luciferase, % of control","luciferase per cell, z-score","viable cells, % of control",Call
RNF113B (GeneID 140432),SID160757754,-2.11,39.8,-1.88,73,inactive
RNF113B (GeneID 140432),SID160757755,-0.992,62.2,-1.3,97.8,inactive
RNF113B (GeneID 140432),SID160757756,-0.142,79.1,-0.0761,90.1,inactive
AGPAT2 (GeneID 10555),SID160728718,-0.676,68.4,-0.941,98,inactive
AGPAT2 (GeneID 10555),SID160728719,0.364,89.1,0.385,90,inactive
AGPAT2 (GeneID 10555),SID160730449,-1.13,59.5,-1.27,92.8,inactive
MICA (GeneID 100507436),SID160777244,0.0336,82.6,0.978,71.3,inactive
MICA (GeneID 100507436),SID160777245,0.778,97.4,2.3,59.3,inactive
MICA (GeneID 100507436),SID160777246,-0.103,79.8,-0.43,99.9,inactive
DEFB135 (GeneID 613209),SID160733704,0.86,99,2.47,57.7,inactive
DEFB135 (GeneID 613209),SID160768371,1.25,107,1.47,81.1,inactive
DEFB135 (GeneID 613209),SID160768372,-0.279,76.3,-0.378,94.2,inactive
KRT36 (GeneID 8689),SID160720609,1.29,108,0.681,101,inactive
KRT36 (GeneID 8689),SID160720610,-1.28,56.4,-0.128,65.1,inactive
KRT36 (GeneID 8689),SID160720612,-0.779,66.4,-0.621,87.4,inactive
NPAS2 (GeneID 4862),SID160778179,0.0422,82.7,0.0208,91.9,inactive
NPAS2 (GeneID 4862),SID160778180,1.41,110,1.48,83.2,inactive
NPAS2 (GeneID 4862),SID160778181,-0.0152,81.6,0.516,79.6,inactive
MBIP (GeneID 51562),SID160741010,0.142,84.7,-0.381,105,inactive
MBIP (GeneID 51562),SID160741011,0.687,95.6,0.18,102,inactive
MBIP (GeneID 51562),SID160741012,0.901,99.8,0.734,91.9,inactive
ZNF333 (GeneID 84449),SID160752274,-0.129,79.3,0.123,85.8,inactive
ZNF333 (GeneID 84449),SID160752275,0.0364,82.6,0.0638,90.8,inactive
ZNF333 (GeneID 84449),SID160752276,1.6,114,1.82,78.7,inactive
HSD17B14 (GeneID 51171),SID160740238,0.0369,82.6,-0.841,115,inactive
HSD17B14 (GeneID 51171),SID160740239,-2.18,38.4,-2.9,92.2,inactive
HSD17B14 (GeneID 51171),SID160740240,1.06,103,1.45,78.4,inactive
ELMO1 (GeneID 9844),SID160723236,-0.08,80.3,-0.554,104,inactive
ELMO1 (GeneID 9844),SID160723237,-0.132,79.3,0.899,69.9,inactive
ELMO1 (GeneID 9844),SID160732223,-1.51,51.9,-1.52,86.5,inactive
CIMIP2B (GeneID 730112),SID160773521,1.04,103,1.16,84.5,inactive
CIMIP2B (GeneID 730112),SID160773522,-0.284,76.2,-0.721,103,inactive
CIMIP2B (GeneID 730112),SID160773524,-0.778,66.4,-0.438,83.3,inactive
NCEH1 (GeneID 57552),SID160746253,0.161,85.1,-0.093,97.4,inactive
NCEH1 (GeneID 57552),SID160746254,-0.393,74.1,-0.881,104,inactive
NCEH1 (GeneID 57552),SID160746255,-0.823,65.5,-0.922,93.3,inactive
AQP4 (GeneID 361),SID160719232,0.179,85.4,-0.295,103,inactive
AQP4 (GeneID 361),SID160719243,0.249,86.8,-0.142,101,inactive
AQP4 (GeneID 361),SID160719254,-1.13,59.4,-1.71,104,inactive
CNTNAP4 (GeneID 85445),SID160753298,-1.72,47.6,-1.49,78.7,inactive
CNTNAP4 (GeneID 85445),SID160753300,-0.841,65.2,0.238,68.4,inactive
CNTNAP4 (GeneID 85445),SID160753301,1.24,106,1.26,85.4,inactive
KRT126P (GeneID 643865),SID160769026,1.45,111,1.19,90.4,inactive
KRT126P (GeneID 643865),SID160769027,-0.452,72.9,-0.39,90.3,inactive
KRT126P (GeneID 643865),SID160769028,0.15,84.9,0.649,79.9,inactive
OR6X1 (GeneID 390260),SID160766467,0.0589,83.1,-0.248,99.1,inactive
OR6X1 (GeneID 390260),SID160766468,-0.0103,81.7,0.867,72.7,inactive
OR6X1 (GeneID 390260),SID160766469,-0.682,68.3,0.0265,75.8,inactive
METTL2B (GeneID 55798),SID160731533,1.67,115,1.3,91.4,inactive
METTL2B (GeneID 55798),SID160744387,1.57,113,1.26,90.9,inactive
METTL2B (GeneID 55798),SID160744388,1.39,110,1.95,73.4,inactive
SURF1 (GeneID 6834),SID160717554,2.53,132,2.49,76.8,inactive
SURF1 (GeneID 6834),SID160717555,-0.389,74.1,-0.537,95.4,inactive
SURF1 (GeneID 6834),SID160734202,2.16,125,1.76,87.9,inactive
EDIL3 (GeneID 10085),SID160725187,-1.79,46.3,0.501,45.3,inactive
EDIL3 (GeneID 10085),SID160725193,2.54,132,1.9,89.8,inactive
EDIL3 (GeneID 10085),SID160730402,-0.311,75.7,-0.502,96.5,inactive

Ordered by “luciferase per cell, z-score” (descending): 5 of the entries above.
target gene,PubChem SID,"total luciferase, z-score","total luciferase, % of control","luciferase per cell, z-score","viable cells, % of control",Call
CNTNAP4 (GeneID 85445),SID160753300,-0.841,65.2,0.238,68.4,inactive
AQP4 (GeneID 361),SID160719243,0.249,86.8,-0.142,101,inactive
AQP4 (GeneID 361),SID160719232,0.179,85.4,-0.295,103,inactive
CNTNAP4 (GeneID 85445),SID160753298,-1.72,47.6,-1.49,78.7,inactive
AQP4 (GeneID 361),SID160719254,-1.13,59.4,-1.71,104,inactive
